Results: US20260265300A1, “TARGETING PRAC1 IN STEROID HORMONE DRIVEN CANCER” (Fred Hutchinson Cancer Center, priority 2023, published 2026)
These are yes or no findings as the source states them, for the method shown. Some results given as binding are weak or reduced against the parent protein; the word gives no strength.

By UniProt entry, the sequences of proteins in these tests, tags left out. Residues count along the entry.
UniProt P10275, residues 664-920: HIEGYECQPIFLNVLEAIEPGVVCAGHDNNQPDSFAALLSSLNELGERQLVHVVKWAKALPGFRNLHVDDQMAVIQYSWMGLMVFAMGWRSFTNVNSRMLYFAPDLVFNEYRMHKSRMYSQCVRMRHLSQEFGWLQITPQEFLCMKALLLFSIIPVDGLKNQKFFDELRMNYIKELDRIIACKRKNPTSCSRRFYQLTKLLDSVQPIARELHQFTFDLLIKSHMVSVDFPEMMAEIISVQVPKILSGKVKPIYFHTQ

Tests used:
[1] = target: androgen receptor (AR) ligand binding domain (UniProt P10275); assay: crystal structure
[2] = target: androgen receptor (AR) ligand binding domain (UniProt P10275); assay: crystal structure (legend of FIG. 6B)
[3] = target: androgen receptor (AR) ligand binding domain (UniProt P10275); assay: crystal structure (legend of FIG. 7B)
[4] = target: androgen receptor (AR) ligand binding domain (UniProt P10275); assay: recombinant protein-based assay (legend of FIG. 6C)
[5] = target: androgen receptor (AR) ligand binding domain (UniProt P10275); assay: surface plasmon resonance, recombinant proteins, 0.5 M NaCl

binding [1] | binding [2] | binding [3] | binding [4] | binding [5] | Binder
binds | binds | binds |  |  | LFSLIRKHLL [PRAC1 peptide … (SEQ ID NO:37)]
 |  |  | binds | binds | MLACKVRQAGFWSPPLQREQRCCAPISQIKDRPILLPPRVLFSLIRKHLL [PRAC1]
